Assay results published in PMC12406269.
These are yes or no findings as the source states them, for the method shown. Sequences can lack the tags named with a protein.

By UniProt entry, the sequences of proteins in these tests, tags left out. Residues count along the entry.
UniProt Q64339, residues 1-155: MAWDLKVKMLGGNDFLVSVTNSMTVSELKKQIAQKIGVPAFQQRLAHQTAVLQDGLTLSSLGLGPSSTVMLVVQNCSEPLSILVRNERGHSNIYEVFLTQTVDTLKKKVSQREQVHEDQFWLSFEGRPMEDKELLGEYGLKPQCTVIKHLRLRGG
UniProt P05161, residues 1-157: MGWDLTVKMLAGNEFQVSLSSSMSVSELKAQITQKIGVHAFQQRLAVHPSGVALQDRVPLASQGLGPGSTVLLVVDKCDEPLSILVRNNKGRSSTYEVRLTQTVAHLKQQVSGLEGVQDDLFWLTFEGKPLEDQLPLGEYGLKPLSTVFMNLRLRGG

Tests used:
His-mISG15 (mouse) = His-mISG15 (mouse) (UniProt Q64339); assay: SEC; VHH and ISG15 mixed at the indicated molar ratios (1:2, 1:1 or 1:1:1) at 20 μM in 500 μl TBS, 20 min at room temperature; Superdex 75 10/300, fractions on SDS-PAGE; both purified
[1] = target: human ISG15 (1-157)-SBP-His (human) (UniProt P05161); assay: condition: only ISG15 denatured (reducing SDS-PAGE, immunoblot); 1 μg/ml VHH; far-Western, overlay or dot blot; immunoblot: recombinant proteins resolved by reducing SDS-PAGE on nitrocellulose, probed with 1 μg/ml HA-tagged VHH, detected with anti-HA HRP; both purified

binding (His-mISG15 (mouse)): no binding (tested: 20 μM)
binding [1]: no binding
B1: VHH_(ISG15-B)-HA-His (VHH)
VHH: QVQLVETGGGLVEPGGSLRLSCTVSGINFSSQFMAWFRQGPGKQREWVAIDAGEENVGYLDLVEGRFTISRDTARNTLYLQMNSLKPEDTAVYYCNIFPVLPDSRWGQGTQVTVSS
